Test results published in paper PMC12702018.
Results are given in words; binding and its absence hold for the method and conditions named. Binding seen in cells or lysates may run through a third protein. Some entries that bind do so weakly or less than the wild type.

Sequences of proteins named here, by UniProt entry; tags and fusion partners are left off. A change or cut given only in a name is not applied to a line headed by its entry.
UniProt Q5UIP0: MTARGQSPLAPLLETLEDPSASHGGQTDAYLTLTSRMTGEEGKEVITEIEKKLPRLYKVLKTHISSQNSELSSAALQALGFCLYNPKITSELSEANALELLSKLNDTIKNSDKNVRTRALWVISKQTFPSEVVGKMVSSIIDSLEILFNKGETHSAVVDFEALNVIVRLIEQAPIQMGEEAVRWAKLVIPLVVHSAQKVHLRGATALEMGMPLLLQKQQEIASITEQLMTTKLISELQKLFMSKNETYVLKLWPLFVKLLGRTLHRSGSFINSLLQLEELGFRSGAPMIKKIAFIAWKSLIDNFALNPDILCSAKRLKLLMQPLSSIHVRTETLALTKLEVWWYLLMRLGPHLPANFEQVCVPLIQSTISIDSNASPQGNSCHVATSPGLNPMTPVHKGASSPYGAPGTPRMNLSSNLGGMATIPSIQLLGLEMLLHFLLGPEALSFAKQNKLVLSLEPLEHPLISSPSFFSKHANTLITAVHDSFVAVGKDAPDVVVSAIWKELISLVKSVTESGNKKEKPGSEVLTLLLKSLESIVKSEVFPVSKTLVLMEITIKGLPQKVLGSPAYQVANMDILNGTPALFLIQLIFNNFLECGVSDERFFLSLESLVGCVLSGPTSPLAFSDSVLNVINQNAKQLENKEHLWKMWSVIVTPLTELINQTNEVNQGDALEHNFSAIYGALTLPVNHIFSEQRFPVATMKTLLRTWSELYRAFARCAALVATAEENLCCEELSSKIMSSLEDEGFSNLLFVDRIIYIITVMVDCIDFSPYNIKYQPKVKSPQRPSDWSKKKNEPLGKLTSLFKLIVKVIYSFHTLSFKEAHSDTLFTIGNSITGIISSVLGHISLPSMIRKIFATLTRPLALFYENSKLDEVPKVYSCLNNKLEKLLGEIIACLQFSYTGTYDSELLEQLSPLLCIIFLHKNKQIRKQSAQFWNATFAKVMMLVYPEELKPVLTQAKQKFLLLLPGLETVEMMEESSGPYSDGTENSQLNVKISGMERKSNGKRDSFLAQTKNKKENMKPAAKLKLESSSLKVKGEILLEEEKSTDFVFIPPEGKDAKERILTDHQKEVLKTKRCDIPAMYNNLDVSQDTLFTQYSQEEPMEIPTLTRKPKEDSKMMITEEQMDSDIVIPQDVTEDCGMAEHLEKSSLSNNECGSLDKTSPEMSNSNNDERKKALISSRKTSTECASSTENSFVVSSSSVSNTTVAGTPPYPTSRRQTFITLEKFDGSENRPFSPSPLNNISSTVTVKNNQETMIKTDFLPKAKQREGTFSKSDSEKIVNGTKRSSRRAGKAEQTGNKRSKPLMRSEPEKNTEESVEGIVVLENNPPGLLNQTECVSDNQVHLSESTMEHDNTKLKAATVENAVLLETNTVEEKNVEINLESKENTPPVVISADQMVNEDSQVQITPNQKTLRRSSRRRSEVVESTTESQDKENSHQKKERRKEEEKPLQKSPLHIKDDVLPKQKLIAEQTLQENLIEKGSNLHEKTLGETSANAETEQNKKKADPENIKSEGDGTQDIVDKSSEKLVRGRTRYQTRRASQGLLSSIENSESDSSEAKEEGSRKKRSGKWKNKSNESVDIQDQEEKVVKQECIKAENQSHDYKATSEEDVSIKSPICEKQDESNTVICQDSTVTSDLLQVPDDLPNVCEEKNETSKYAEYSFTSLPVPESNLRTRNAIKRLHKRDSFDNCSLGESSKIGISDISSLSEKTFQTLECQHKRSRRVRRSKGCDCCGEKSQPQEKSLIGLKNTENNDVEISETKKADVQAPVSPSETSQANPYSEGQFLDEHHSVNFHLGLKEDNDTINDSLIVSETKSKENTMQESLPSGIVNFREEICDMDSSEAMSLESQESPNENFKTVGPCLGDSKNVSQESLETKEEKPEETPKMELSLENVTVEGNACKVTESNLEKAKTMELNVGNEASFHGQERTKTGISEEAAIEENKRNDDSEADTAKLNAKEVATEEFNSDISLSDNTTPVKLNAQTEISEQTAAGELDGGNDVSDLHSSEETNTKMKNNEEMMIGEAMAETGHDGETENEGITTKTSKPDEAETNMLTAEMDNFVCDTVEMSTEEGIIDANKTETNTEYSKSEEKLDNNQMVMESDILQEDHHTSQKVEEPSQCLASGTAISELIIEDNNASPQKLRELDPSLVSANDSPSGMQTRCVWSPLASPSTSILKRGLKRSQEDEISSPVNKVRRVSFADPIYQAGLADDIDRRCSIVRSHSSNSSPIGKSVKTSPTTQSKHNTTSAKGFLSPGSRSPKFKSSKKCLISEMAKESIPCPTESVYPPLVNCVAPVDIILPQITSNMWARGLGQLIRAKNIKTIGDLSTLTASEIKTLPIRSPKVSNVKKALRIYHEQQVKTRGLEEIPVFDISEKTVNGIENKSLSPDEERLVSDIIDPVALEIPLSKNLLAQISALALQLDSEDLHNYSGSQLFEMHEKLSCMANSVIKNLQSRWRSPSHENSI
UniProt Q14676: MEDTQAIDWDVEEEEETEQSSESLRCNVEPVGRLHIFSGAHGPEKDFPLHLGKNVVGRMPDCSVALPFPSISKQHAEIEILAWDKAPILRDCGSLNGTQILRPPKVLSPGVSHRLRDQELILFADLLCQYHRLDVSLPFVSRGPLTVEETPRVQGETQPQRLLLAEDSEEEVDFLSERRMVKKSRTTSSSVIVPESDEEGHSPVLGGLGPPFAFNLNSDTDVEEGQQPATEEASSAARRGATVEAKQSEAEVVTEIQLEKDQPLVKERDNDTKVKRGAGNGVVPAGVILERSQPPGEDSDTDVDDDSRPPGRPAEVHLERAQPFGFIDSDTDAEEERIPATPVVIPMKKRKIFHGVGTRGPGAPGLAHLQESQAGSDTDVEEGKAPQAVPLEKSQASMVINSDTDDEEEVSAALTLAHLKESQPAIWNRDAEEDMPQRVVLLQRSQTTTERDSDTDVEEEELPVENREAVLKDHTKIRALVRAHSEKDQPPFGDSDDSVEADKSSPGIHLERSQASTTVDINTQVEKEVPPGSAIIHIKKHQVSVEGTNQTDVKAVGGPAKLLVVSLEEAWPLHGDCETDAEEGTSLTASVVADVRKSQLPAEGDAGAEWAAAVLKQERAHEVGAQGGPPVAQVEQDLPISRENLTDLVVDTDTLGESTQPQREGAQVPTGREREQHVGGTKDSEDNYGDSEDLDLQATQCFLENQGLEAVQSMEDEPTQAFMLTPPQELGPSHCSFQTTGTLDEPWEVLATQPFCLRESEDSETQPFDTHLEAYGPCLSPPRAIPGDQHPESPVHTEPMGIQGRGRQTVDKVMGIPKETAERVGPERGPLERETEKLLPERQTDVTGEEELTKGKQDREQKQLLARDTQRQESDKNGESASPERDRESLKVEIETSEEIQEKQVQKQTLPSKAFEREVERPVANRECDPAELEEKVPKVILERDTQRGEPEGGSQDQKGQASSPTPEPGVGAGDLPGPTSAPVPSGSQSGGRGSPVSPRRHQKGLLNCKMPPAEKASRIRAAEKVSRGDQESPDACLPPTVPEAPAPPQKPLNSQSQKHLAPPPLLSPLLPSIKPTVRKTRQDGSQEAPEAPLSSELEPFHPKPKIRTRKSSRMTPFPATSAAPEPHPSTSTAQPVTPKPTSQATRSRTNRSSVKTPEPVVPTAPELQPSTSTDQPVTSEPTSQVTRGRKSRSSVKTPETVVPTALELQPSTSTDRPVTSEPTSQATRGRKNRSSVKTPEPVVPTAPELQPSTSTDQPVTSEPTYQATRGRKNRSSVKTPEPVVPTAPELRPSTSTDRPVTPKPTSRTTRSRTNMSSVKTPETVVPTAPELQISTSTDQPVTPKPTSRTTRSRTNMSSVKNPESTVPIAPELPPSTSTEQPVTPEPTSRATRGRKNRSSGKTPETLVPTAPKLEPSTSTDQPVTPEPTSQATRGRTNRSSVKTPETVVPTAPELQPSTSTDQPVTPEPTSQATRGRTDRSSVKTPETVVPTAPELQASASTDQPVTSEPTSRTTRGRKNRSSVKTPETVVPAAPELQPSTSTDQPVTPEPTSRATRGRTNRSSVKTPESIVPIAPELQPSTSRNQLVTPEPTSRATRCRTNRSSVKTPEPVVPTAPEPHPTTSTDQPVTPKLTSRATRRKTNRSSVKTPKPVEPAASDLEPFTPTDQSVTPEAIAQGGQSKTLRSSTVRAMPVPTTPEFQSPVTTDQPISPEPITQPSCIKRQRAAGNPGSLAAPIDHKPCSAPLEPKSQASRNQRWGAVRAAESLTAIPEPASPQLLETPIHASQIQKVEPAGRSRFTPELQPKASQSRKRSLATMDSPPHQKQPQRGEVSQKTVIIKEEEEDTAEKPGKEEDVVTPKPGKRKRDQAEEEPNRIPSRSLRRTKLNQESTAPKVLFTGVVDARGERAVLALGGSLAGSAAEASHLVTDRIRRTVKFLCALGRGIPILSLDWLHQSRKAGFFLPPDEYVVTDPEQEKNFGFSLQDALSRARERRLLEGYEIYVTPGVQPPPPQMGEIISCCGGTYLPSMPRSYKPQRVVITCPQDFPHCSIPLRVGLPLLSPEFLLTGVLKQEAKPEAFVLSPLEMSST

Legend:
[1] = target: GFP-RIF1-S (GFP-tagged full-length RIF1-Short, RAP1 interacting factor 1) (human) (UniProt Q5UIP0); assay: proximity ligation; Duolink PLA with GFP and MDC1 antibodies in RIF1^−/− U-2 OS cells expressing GFP, GFP-RIF1-L or GFP-RIF1-S; mock irradiated or 10 Gy IR and 2 h recovery; pre-extracted 8 min with CSK buffer (100 mM NaCl, 0.5% Triton X-100) before fixation
[2] = target: GFP-RIF1-L (GFP-tagged full-length RIF1-Long, RAP1 interacting factor 1) (human) (UniProt Q5UIP0); assay: as above

binding [1]: binds | binding [2]: binds
Substance: mediator of DNA damage checkpoint 1 (MDC1) (from UniProt Q14676 1-2089)
